Common to all, as to test: co-IP
Assay [1] deals with HTM-N-sfGFP (SUV420H2 heterochromatic targeting module N-terminal region, aa 352-380, tagged with superfolder GFP) (human) (UniProt Q86Y97).
The target of assay [2] is T1, HTM-C-sfGFP (SUV420H2 heterochromatic targeting module C-terminal region, aa 389-410, tagged with superfolder GFP) (human) (UniProt Q86Y97).
T1 sequence: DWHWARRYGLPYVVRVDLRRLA

The chains behind the UniProt entries cited, without tags or fusion partners.
UniProt P45973: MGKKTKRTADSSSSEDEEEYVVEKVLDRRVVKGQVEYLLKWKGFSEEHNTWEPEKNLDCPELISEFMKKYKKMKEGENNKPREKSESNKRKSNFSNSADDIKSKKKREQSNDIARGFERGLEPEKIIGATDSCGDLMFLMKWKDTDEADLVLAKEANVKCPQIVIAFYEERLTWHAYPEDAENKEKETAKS
UniProt P83916: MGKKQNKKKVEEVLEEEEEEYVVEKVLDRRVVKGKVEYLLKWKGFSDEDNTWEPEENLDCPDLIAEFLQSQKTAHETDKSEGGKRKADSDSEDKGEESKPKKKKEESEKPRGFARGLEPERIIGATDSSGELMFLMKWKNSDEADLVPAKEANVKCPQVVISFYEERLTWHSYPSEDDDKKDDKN
UniProt Q13185: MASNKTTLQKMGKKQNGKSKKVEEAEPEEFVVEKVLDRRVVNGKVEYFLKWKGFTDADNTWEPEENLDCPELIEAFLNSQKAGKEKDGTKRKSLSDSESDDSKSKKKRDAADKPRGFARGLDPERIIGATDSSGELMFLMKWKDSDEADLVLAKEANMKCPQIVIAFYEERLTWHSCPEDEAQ

In assay [3] the target is HTM-N V354D-sfGFP (human) (UniProt Q86Y97).
In assay [4] the target is T2, HTM-C V402D-V404D-sfGFP (human) (UniProt Q86Y97).
T2 sequence: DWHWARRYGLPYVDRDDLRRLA

No constants are given. Whether binding was seen depends on the method and setting. Binding seen in cells or lysates may run through a third protein. Some results given as binding are weak or reduced against the parent protein; the word gives no strength. For part of these data: Tags and fused reporters may be left off the sequences shown.

As for “HP1α (heterochromatin protein 1 alpha) (from UniProt P45973 1-191)”, the binding result is on record as “binds” in assay [1], “binds” in assay [2], “no binding” in assay [3] and “no binding” in assay [4].

Take “HP1β (heterochromatin protein 1 beta) (from UniProt P83916 1-185)”: the binding result is “binds” in assay [1], “binds” in assay [2], “no binding” in assay [3] and “no binding” in assay [4].

As for “HP1γ (heterochromatin protein 1 gamma) (from UniProt Q13185 1-183)”, the binding result in assay [1] was “binds”; in assay [2] it was “binds”; in assay [3], “no binding”; in assay [4] it was “no binding”.

Values taken from article doi:10.1101/2023.12.03.569804.
